Drawing on PMC5472658, this text covers binding for 4 substances.

By UniProt entry, the sequences of proteins in these tests, tags left out. Where a name states a change or a piece, a line headed by the entry shows the natural chain unless it says otherwise.
UniProt P49840: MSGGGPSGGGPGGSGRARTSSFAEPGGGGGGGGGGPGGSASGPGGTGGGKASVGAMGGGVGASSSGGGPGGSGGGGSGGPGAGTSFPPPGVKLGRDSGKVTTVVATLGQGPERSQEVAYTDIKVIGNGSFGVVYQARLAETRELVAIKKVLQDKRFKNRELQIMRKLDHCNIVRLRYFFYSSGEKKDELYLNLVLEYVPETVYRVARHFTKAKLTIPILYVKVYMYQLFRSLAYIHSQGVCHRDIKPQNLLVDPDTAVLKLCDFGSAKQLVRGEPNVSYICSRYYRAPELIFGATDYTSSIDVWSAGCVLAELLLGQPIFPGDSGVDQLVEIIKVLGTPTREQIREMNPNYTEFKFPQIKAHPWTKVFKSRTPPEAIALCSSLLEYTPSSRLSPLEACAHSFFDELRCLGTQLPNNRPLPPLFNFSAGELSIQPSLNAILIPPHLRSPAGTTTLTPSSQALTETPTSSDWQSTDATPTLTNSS
UniProt P49841: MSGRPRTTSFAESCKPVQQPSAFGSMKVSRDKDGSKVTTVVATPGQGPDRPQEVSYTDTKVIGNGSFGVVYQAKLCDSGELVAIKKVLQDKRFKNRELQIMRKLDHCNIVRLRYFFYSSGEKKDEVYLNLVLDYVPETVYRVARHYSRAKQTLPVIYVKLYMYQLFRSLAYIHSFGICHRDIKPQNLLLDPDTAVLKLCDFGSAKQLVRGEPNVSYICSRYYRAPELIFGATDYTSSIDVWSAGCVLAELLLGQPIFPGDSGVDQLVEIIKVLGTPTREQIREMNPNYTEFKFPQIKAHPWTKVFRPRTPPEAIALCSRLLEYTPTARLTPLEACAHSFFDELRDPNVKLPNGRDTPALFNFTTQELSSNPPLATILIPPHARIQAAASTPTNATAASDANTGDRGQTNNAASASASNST
UniProt Q2NL51: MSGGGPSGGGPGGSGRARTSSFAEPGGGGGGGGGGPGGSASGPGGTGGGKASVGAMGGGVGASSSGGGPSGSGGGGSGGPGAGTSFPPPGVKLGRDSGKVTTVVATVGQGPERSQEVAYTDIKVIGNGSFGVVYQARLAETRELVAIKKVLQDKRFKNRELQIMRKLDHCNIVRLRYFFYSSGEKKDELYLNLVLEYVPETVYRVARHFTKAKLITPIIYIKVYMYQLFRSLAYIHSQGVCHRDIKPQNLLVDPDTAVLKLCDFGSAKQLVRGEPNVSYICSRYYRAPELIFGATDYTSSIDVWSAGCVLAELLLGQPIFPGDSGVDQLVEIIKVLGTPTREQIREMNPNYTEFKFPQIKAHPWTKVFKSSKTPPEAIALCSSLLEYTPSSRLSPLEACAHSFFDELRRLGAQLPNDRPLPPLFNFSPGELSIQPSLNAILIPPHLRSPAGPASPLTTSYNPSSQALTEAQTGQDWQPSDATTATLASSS
UniProt P18266: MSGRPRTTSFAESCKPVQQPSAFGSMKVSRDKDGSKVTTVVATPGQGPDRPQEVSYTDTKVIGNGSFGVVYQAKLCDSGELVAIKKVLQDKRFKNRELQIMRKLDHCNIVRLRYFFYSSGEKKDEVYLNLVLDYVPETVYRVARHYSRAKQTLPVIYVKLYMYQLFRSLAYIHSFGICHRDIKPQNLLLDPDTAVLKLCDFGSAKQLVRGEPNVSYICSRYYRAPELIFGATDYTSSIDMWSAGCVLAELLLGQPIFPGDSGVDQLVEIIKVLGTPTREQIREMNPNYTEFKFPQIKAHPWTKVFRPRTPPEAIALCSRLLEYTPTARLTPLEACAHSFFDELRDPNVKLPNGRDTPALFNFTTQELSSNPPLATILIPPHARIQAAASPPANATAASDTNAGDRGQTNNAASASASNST

Test [1] concerns the target T1, HA-tagged BIO-Arc, rat (rat) (UniProt Q63053).
T1 sequence (chain, biotin on the avi-tag): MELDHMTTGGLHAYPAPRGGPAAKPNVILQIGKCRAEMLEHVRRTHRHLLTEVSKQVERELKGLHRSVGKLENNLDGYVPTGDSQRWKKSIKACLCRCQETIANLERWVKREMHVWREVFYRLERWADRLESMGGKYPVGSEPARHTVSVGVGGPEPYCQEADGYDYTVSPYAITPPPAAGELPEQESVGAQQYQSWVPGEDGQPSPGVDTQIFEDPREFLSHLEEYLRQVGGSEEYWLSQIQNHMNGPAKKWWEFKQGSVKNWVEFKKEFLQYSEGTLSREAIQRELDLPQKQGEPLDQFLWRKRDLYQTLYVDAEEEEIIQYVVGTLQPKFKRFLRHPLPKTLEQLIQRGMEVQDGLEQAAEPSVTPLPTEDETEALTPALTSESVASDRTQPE
The test is described as follows: co-IP; avi-tag co-precipitation: HEK293 co-transfected with HA-BIO-Arc, BirA and FLAG-GSK3α or FLAG-GSK3β (wildtype or kinase dead), lysed in avi-tag pulldown buffer, Arc complexes captured on streptavidin-coated beads; blot with anti-FLAG and anti-HA.

Test [2] has as its target T2, BIO-Arc, human (N-terminally avi-tagged, biotinylated Arc) (human) (UniProt Q7LC44).
T2 sequence (chain, biotin on the avi-tag): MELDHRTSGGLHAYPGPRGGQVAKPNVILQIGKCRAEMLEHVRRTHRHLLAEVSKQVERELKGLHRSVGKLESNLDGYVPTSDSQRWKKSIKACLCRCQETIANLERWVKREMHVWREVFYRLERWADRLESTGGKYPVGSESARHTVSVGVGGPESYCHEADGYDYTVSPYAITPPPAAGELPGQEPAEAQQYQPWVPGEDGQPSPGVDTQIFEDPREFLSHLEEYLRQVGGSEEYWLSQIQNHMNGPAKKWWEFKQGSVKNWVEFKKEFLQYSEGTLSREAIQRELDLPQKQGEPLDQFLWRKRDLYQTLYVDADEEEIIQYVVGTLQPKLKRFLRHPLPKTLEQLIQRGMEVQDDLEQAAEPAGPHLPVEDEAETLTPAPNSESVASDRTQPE
The test can be described thus: pull-down; avi-tag pulldown: biotinylated Arc isolated from HEK293 on streptavidin-coated beads, rotated with mouse hippocampus homogenate 4 h at 4°C in 20 mM HEPES pH 7.3, 150 mM KCl, 0.25% NP-40; blot with anti-GSK3α/β; only the target purified.

Test [3] concerns the target T3, BIO-Arc, rat (N-terminally avi-tagged, biotinylated Arc) (rat) (UniProt Q63053).
T3 sequence (chain, biotin on the avi-tag): T1 sequence (chain, biotin on the avi-tag)
Described as above.

Test [4] has as its target T4, GST-fused Arc (activity-regulated cytoskeleton-associated protein), rat (rat) (UniProt Q63053).
T4 sequence: T1 sequence (chain, biotin on the avi-tag)
The test can be described thus: pull-down; GST-Arc on glutathione Sepharose 4B beads incubated 1 h with lysate from the rat hippocampal CA region (1 mg/ml) in 50 mM Tris-HCl pH 7.4, 150 mM NaCl, 1 mM EDTA, 0.5% NP-40; blot with anti-GSK3α/β; only the target purified.

Results are given in words; binding and its absence hold for the method and conditions named. Binding seen in cells or lysates may run through a third protein. Some binding calls cover weakened binding; strength is not graded here. Where a sequence is shown, tags or fusion partners need not be part of it.

For the substance “FLAG-GSK3α K148A (kinase dead) (from UniProt P49840 1-483) (enzyme)”, the binding entry in test [1] is given as “binds”.
Same read-out and setting: in the case of “FLAG-GSK3β K85A (kinase dead) (from UniProt P49841 1-420) (enzyme)” it was “binds”.
On to “Glycogen synthase kinase 3α (GSK3α), endogenous in mouse hippocampus (from UniProt Q2NL51 1-490) (enzyme)”, for which the binding entry in test [2] and in test [3] was “binds” throughout.
“Glycogen synthase kinase 3β (GSK3β), endogenous in rat hippocampus (from UniProt P18266 1-420) (enzyme)”: in test [4], the binding result is “binds”.
